Measured values reported in patent publication US20070248590A1, “Modulators of CDC2-like kinases (CLKS) and methods of use thereof” (Sirtris Pharmaceuticals, Inc., priority 2005, published 2007).
At least one compound was matched to its structure with a doubt left.

Tested on: insulin induction of CLK2 alternate splicing in FAO cells
Assay: CLK2 splicing analysis (RT-PCR with primers flanking exon 4) in FAO cells
Type: cell-based, rat
Conditions: 20 μM inhibitor pretreatment
Experimental: Splicing Analysis. Total RNA was isolated from FAO hepatocytes pre-treated with indicated inhibitor then Insulin for 2 hours. RT-PCR was performed using SuperScript One-Step RT-PCR with taq (Invitrogen) on 1 ug of total RNA using primers flanking exon 4 on Clk2 and Clk1.

SMILES: CO[C@H]1C[C@@H]2CC[C@@H](C)[C@@](O)(O2)C(=O)C(=O)N2CCCC[C@H]2C(=O)O[C@H]([C@H](C)C[C@@H]2CC[C@@H](O)[C@H](OC)C2)CC(=O)[C@H](C)/C=C(\C)[C@@H](O)[C@@H](OC)C(=O)[C@H](C)C[C@H](C)/C=C/C=C/C=C/1C [Rapamycin]
- insulin induction of CLK2 alternate splicing (truncated transcript): blocks
